# No constants are given. Whether binding was seen depends on the method and setting. Binding seen in cells or lysates may run through a third protein. Here binding means that the protein was enriched with, or labelled near, the bait; the list need not be complete. For some assays here: Sequences can lack the tags named with a protein.
# The chains behind the UniProt entries cited, without tags or fusion partners. Where a name states a change or a piece, a line headed by the entry shows the natural chain unless it says otherwise.
# UniProt F4J4R5: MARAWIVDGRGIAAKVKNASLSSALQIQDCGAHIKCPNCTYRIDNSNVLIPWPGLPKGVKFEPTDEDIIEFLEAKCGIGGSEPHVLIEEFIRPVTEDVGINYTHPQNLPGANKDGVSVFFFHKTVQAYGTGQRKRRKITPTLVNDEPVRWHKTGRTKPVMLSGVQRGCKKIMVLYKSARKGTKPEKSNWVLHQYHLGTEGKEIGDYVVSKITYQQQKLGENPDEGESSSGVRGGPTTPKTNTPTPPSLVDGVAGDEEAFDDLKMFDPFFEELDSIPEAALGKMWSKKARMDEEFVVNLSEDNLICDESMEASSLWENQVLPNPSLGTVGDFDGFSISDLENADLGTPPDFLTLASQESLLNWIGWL
# Tests used:
# [1] = molecular target: T1, N-terminally tagged TCX5 (TAP bait) (Arabidopsis thaliana) (UniProt Q9SZD1); assay: affinity purification with mass spectrometry; tandem affinity purification (GS^rhino tag) from Arabidopsis PSB-D cell suspension cultures expressing the tagged bait under the 35S promoter; 30 uM cisplatin added 16 h before harvest; 100 mg total protein extract; on-bead digest, LC-MS/MS; in …
# T1 sequence: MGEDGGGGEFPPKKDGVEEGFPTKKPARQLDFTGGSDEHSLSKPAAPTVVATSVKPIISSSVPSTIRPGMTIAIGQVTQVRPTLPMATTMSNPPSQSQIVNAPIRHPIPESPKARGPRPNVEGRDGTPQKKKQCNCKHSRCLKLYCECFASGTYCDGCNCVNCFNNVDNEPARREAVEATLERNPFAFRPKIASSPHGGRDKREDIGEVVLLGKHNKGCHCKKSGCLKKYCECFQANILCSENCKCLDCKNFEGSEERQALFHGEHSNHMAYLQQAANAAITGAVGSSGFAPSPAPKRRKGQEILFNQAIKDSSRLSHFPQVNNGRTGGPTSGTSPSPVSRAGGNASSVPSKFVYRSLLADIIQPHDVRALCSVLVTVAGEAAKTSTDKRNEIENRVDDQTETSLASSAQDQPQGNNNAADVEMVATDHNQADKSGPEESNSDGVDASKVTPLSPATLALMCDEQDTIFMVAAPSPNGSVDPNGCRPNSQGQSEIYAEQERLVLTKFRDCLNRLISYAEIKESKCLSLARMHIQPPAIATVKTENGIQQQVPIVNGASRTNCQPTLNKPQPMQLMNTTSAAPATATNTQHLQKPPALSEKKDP
# [2] = molecular target: N-terminally tagged LIN52A (TAP bait) (Arabidopsis thaliana); assay: as above
# [3] = molecular target: T2, C-terminally tagged TCX5 (TAP bait) (Arabidopsis thaliana) (UniProt Q9SZD1); assay: as above
# T2 sequence: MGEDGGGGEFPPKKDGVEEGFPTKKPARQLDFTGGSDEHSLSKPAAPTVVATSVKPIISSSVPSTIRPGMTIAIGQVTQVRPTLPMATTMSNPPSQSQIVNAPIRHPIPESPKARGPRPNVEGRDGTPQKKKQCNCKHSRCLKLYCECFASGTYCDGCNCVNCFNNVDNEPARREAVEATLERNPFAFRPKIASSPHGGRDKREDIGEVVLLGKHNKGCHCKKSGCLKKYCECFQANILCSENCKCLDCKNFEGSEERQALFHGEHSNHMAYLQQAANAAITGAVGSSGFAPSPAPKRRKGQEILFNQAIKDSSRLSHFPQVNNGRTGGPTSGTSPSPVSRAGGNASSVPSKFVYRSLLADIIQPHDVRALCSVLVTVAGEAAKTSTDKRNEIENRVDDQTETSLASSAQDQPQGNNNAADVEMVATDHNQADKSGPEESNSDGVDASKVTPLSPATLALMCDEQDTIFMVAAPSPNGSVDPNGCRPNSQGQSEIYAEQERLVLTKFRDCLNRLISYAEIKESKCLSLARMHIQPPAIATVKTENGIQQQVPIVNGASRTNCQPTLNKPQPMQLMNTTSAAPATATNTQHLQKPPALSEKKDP
# [4] = molecular target: T3, RBR1-GFP (Arabidopsis thaliana) (UniProt Q9LKZ3); assay: affinity purification with mass spectrometry; FP-IP: anti-GFP antibody on magnetic beads, total protein extracts (4 mg/IP) of Arabidopsis seedlings expressing the GFP- or CFP-tagged bait under its own promoter; GFP alone as control; standard conditions, various growth regimes (meta-analysis of 182 IPs), with or without 50 uM cisplatin for 24 h; label-free LC-MS/MS
# T3 sequence: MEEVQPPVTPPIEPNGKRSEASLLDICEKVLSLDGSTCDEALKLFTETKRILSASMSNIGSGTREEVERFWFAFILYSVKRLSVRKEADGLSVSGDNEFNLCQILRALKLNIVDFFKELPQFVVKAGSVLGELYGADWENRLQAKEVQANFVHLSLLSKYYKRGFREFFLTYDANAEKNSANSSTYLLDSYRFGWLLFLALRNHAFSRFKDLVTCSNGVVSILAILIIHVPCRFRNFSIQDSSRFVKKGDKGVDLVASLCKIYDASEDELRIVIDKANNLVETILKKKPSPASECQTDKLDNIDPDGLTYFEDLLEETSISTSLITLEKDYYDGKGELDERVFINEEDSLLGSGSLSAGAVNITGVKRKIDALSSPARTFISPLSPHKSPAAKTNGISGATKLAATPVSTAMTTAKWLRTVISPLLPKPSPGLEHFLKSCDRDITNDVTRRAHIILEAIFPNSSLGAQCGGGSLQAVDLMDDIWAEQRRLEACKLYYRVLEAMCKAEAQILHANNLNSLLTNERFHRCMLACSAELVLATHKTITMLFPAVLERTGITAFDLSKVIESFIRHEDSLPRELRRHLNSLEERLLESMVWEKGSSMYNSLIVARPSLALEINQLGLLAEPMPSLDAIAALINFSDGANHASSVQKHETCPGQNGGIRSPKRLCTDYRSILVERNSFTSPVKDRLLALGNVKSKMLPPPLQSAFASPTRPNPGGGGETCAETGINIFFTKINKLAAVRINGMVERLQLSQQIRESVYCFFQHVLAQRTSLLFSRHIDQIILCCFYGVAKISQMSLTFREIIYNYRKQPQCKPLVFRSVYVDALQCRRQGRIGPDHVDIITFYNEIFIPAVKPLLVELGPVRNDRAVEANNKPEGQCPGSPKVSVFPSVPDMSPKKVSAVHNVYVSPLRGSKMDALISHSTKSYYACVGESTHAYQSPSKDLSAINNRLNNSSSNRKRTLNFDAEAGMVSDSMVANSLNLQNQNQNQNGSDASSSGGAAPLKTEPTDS
# [5] = molecular target: C-terminally tagged NAC044 (TAP bait) (Arabidopsis thaliana) (UniProt F4J4R5); assay: affinity purification with mass spectrometry; tandem affinity purification (GS^rhino tag) from Arabidopsis PSB-D cell suspension cultures expressing the tagged bait under the 35S promoter; 30 uM cisplatin added 16 h before harvest; 100 mg total protein extract; on-bead digest, LC-MS/MS; in …
binder,measurement,setting,value
"MYB3R1 (protein, UniProt Q9S7G7 1-776) MKREMKAPTTPLESLQGDLKGKQGRTSGPARRSTKGQWTPEEDEVLCKAVERFQGKNWKKIAECFKDRTDVQCLHRWQKVLNPELVKGPWSKEEDNTIIDLVEKYGPKKWSTISQHLPGRIGKQCRERWHNHLNPGINKNAWTQEEELTLIRAHQIYGNKWAELMKFLPGRSDNSIKNHWNSSVKKKLDSYYASGLLDQCQSSPLIALQNKSIASSSSWMHSNGDEGSSRPGVDAEESECSQASTVFSQSTNDLQDEVQRGNEEYYMPEFHSGTEQQISNAASHAEPYYPSFKDVKIVVPEISCETECSKKFQNLNCSHELRTTTATEDQLPGVSNDAKQDRGLELLTHNMDNGGKNQALQQDFQSSVRLSDQPFLSNSDTDPEAQTLITDEECCRVLFPDNMKDSSTSSGEQGRNMVDPQNGKGSLCSQAAETHAHETGKVPALPWHPSSSEGLAGHNCVPLLDSDLKDSLLPRNDSNAPIQGCRLFGATELECKTDTNDGFIDTYGHVTSHGNDDNGGFPEQQGLSYIPKDSLKLVPLNSFSSPSRVNKIYFPIDDKPAEKDKGALCYEPPRFPSADIPFFSCDLVPSNSDLRQEYSPFGIRQLMISSMNCTTPLRLWDSPCHDRSPDVMLNDTAKSFSGAPSILKKRHRDLLSPVLDRRKDKKLKRAATSSLANDFSRLDVMLDEGDDCMTSRPSESPEDKNICASPSIARDNRNCASARLYQEMIPIDEEPKETLESGGVTSMQNENGCNDGGASAKNVSPSLSLHIIWYQL",binding,[1],binds
same,binding,[2],binds
same,binding,[3],binds
"MSI4 (protein, UniProt O22607 1-507) MESDEAAAVSPQATTPSGGTGASGPKKRGRKPKTKEDSQTPSSQQQSDVKMKESGKKTQQSPSVDEKYSQWKGLVPILYDWLANHNLVWPSLSCRWGPQLEQATYKNRQRLYLSEQTDGSVPNTLVIANCEVVKPRVAAAEHISQFNEEARSPFVKKYKTIIHPGEVNRIRELPQNSKIVATHTDSPDVLIWDVETQPNRHAVLGAANSRPDLILTGHQDNAEFALAMCPTEPFVLSGGKDKSVVLWSIQDHITTIGTDSKSSGSIIKQTGEGTDKNESPTVGPRGVYHGHEDTVEDVAFSPTSAQEFCSVGDDSCLILWDARTGTNPVTKVEKAHDADLHCVDWNPHDDNLILTGSADNTVRLFDRRKLTANGVGSPIYKFEGHKAAVLCVQWSPDKSSVFGSSAEDGLLNIWDYDRVSKKSDRAAKSPAGLFFQHAGHRDKVVDFHWNASDPWTIVSVSDDCETTGGGGTLQIWRMSDLIYRPEEEVVAELEKFKSHVMTCASKP",binding,[4],binds
"SOG1 (protein, UniProt Q6NQK2 1-449) MAGRSWLIDSNRIATKIMSASASSDPRQVVWKSNPSRHCPKCQHVIDNSDVVDDWPGLPRGVKFDPSDPEIIWHLLAKSGLSGLSSHPFIDEFIPTVNQDDGICYTHPKNLPGVKSDGTVSHFFHKAIKAYSTGTRKRRKIHDDDFGDVRWHKTGRTKPVVLDGVQRGCKKIMVLYGGKAVKTNWVMHQYHLGIEEDEKEGDYVVSKIFYQQPQQLVVKRGDKAEQEVSEDIFAAVTPTADPVTPKLATPEPRNAVRICSDSHIASDYVTPSDYVSAHEVSLAETSEVMCMEDEVQSIQPNHERPSSGPELEHGLENGAKEMLDDKEEQEKDRDNENQGEEDPTWFDSGSQFILNSQQLVEALSLCDDLLGSQDREENTNSGSLKDKQPCIADYAHLGPEDFKRDLEECQKIVLDPSNIELDTPPEFRLSQLEFGSQDSFLAWGTGKTD",binding,[5],binds

# From article PMC8500230
